PubChem BioAssay AID743454 – Peter MacCallum Cancer Centre – 2014
The deposit covers about 18,000 reagents; shown is a random part of them. 450 of all reagents (2.5%) were called active. 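Single biological run; no consistent viability z cut-off exists, so the class columns, not z-scores, define the calls.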 No sequences are given here.

- Assay: 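Search for knock-downs that restore vorinostat killing in resistant colon cancer cells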 (primary screen)
- Cells: human HCT116-VR colon cancer cells, selected for vorinostat resistance
- Reagents: siRNA pool against human genes, 40 nM siRNA pool
- Timing: vorinostat for 24 h, read-out about 72 h after transfection
- Treatment: vorinostat at 2.5 µM final
- Measured: 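Two measures, CellTiter-Fluor viability and luminescent caspase 3/7 activity, each as fold change against same-plate mock wells, mean of duplicates, then screen-wide robust z-score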
- Reading the numbers: viability robust z-score: higher = more viable cells than screen typical; caspase robust z-score: higher = more caspase 3/7 activity than screen typical
- Active means: 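Hits are knock-downs in viability class RV1/RV2 or caspase class CA1/CA2, excluding ones that killed cells in the no-drug cell-count arm; hits then retested with single siRNAs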

Gene	viability hit class	caspase hit class	viability robust z-score	caspase robust z-score	activity call
INO80C	no change	no change	-1.1	-0.18	inactive
ASB2	no change	no change	-0.06	0.2	inactive
FOXF2	no change	no change	1.58	-0.09	inactive
ZNF433	no change	no change	1.14	-0.43	inactive
AAAS	no change	no change	-0.24	0.54	inactive
ZNF821	no change	no change	0.76	-0.72	inactive
PCM1	no change	no change	-0.38	-0.91	inactive
CCDC186	no change	no change	0.34	0.01	inactive
TLE4	no change	no change	-0.62	2.96	inactive
RAB2A	no change	no change	0.16	1.14	inactive
C5AR2	no change	no change	0.14	3.09	inactive
RELCH	no change	no change	1	1.55	inactive
PIM2	no change	no change	-0.12	-1	inactive
AMMECR1L	no change	no change	0.28	1.01	inactive
NRP1	no change	no change	2.02	0.03	inactive
MIGA1	no change	no change	0.08	-0.22	inactive
ZNF831	no change	no change	-0.73	1.37	inactive
CTNND1	no change	no change	-0.42	0.03	inactive
ACAT1	no change	no change	0.56	-1.01	inactive
FAM107B	no change	no change	-0.49	1.08	inactive
ATOX1	no change	no change	-1.07	2.78	inactive
KYAT1	no change	no change	0.02	2.01	inactive
C1orf87	no change	no change	0.47	1.28	inactive
BBOF1	no change	no change	-0.44	-0.43	inactive
NDUFAF4	no change	no change	1.02	0.2	inactive
ZNF653	no change	no change	1.46	-0.38	inactive
CTSG	no change	no change	0.56	-0.74	inactive
TRIM42	no change	no change	0.9	0.99	inactive
NFIX	no change	no change	-2.17	1.98	inactive
CCDC126	no change	CA1 (caspase activation)	0.54	5.22	active
TAFA5	no change	no change	0.46	1.01	inactive
RPUSD2	no change	no change	1.62	-1	inactive
TMEM45A	no change	no change	0.13	1.29	inactive
ISYNA1	no change	no change	-1.44	1.9	inactive
AQP4	no change	no change	0.4	-1.17	inactive
ECHDC1	no change	no change	0.64	-0.83	inactive
UBE2V1	no change	no change	-0.55	-0.8	inactive
WNT16	no change	no change	1.12	-0.21	inactive
PARD6G	no change	no change	-0.98	0.3	inactive

Hits (from the list above):
Gene	viability hit class	caspase hit class	viability robust z-score	caspase robust z-score	activity call
CCDC126	no change	CA1 (caspase activation)	0.54	5.22	active
